Earlier results on two compounds are cited in patent US20200206351A1, “LOCAL ANESTHETIC SOLUTION FOR DENTAL AND/OR CONTRAST MEDIA USE” (priority 2014, published 2020).

Molecules are shown by their SMILES.

The conditions of this data set: in solution.

With `O=C(CO)[C@@H](O)[C@H](O)[C@H](O)CO` [fructose], the sweetness perception raking is recorded as 1.7 times the sweetness of sucrose.
With `OC[C@@H](O)[C@@H](O)[C@H](O)[C@@H](O)CO` [Sorbitol], the sweetness perception raking is reported as 0.6 times the sweetness of sucrose.
